# Laboratory results as given in patent publication US12023319B2, “Carboxylic acid aromatic amides” (priority 2016, dated 2024).
# System: Male Sprague-Dawley rats
# Assay: Rat STZ model for diabetic neuropathy (cold plate, warm plate, paw pressure, SNCV)
# Assay type: in vivo
# Method: 7. Rat STZ Model for Diabetic Neuropathy (Diabetic Neuropathic Pain, Diabetes Induced Nerve Degeneration)
# The streptozotocin (STZ) diabetic rat is the most extensively studied animal model of diabetic neuropathy. The animals develop rapidly allodynia and hyperalgesia.
# Male Sprague-Dawley rats (˜200 g) were used. They were rendered diabetic by intravenous injection of streptozotocin (55 mg/kg; day 0). Four days (day 4) later, diabetes was confirmed in STZ-injected rats by obtaining a blood sample from the tail vein and by measuring the glucose concentration using a glucose monitor. Only STZ-treated rats with plasma-glucose>260 mg/dl were deemed “diabetic”. The body weight of rats was recorded on daily basis from day 4 to 40.
# 72 animals were randomly assigned to different groups (12 rats per group).
# […] The treatment was performed on daily basis (twice a day: morning and afternoon) from day 4 until day 40. On the day where behavioral measures are performed, compound or vehicle was given 60 min prior the assessment. On the day where electrophysiological measure was performed, treatment was performed after the assessment.
# For positive control regarding analgesia, morphine was dissolved in 0.9% NaCl, and administrated subcutaneously (s.c.) at the dose of 3 mg/kg 45 min prior the tests.
# Experimental Plan: • Day 0: induction of diabetes by injection of STZ for all groups except the control group injected with the STZ vehicle • Day 4: glycemia monitoring for all groups and start of the treatment for all groups, except the morphine group. On day 4 rats received only the evening treatment. • Day 10: cold and warm allodynia test for all groups. Treatment is given 60 min prior to the assessment. On that day, the time between the morning and the evening treatment was reduced. • Day 21: Mechanical hyperalgesia test for all groups. Compound or vehicle was given 60 min prior to the assessment. On that day, the time between the morning and the evening treatment was reduced. • Day 22: Termination of rats in the morphine group. • Day 25-26: measurement of sensory nerve conduction velocity (SNCV). On that day, rats only received the evening treatment. • Day 39-40: measurement of sensory nerve conduction velocity (SNCV). On that day, rats only received the evening treatment. • Day 41: skin biopsy from all rats (histology processing and immunostaining of skin biopsy from 7 rats per group take about 4 weeks).
# Cold Plate Test on Day 10
# The animals were placed into a glass cylinder on a cold platform (0-1° C.). The latency before the first reaction (brisk move of the paw, little leaps) was recorded with a maximal time of 30 s.
# Warm Plate Test on Day 10
# The animals were placed into a glass cylinder on a hot plate adjusted to 42° C. The latency of the first reaction was recorded (paw lifting or licking, leaps or a jump to escape the heat). Results can be seen in FIG. 8 and table 6.
# Paw pressure test is used to assess the hyperalgesia of animals in response to noxious mechanical stimulus. The nociceptive flexion reflex was quantified using the Randall-Selitto paw pressure device (Bioseb, France), which applies a linearly increasing mechanical force to the dorsum of the rat's hind paw. The mechanical nociceptive threshold is defined as the force in grams at which the rat withdraws its paw. The cut off pressure was set to 250 g.
# Electrophysiological Measurements (SNCV)
# Electrophysiological recordings of SNCV were performed using a Keypoint Electromyograph (EMG) (Medtronic, France). Rats were anaesthetized by intraperitoneal injection of 60 mg/kg ketamine chlorhydrate and 4 mg/kg xylazine. SNCV was recorded in the tail. Electrodes were placed as follows: The recording needle electrode was inserted near the base of the tail and stimulating needle electrode is placed about 50 mm away from the recording electrode towards the extremity of the tail. […]
compound,measurement,setting,value
"O=C(O)c1cc(NC(=O)C2(c3ccc(C(F)(F)F)cc3F)CC2)ccc1-c1cnn(C2CCC2)c1 [Example 3, 2-(1-Cyclobutyl-1H-pyrazol-4-yl)-5-[({1-[2-fluoro-4-(trifluoromethyl)phenyl]cyclopropyl}carbonyl)amino]benzoic acid]",Weight,"3 mg/kg, Day 10, individual animals, 3 mg/kg",265 g (2×) and 250 g and 246 g and 271 g (2×) and 257 g (2×) and 252 g and 223 g and 248 g and 249 g
same,Weight,"3 mg/kg, Day 21, individual animals, 3 mg/kg",321 g and 314 g and 282 g and 354 g and 305 g and 300 g and 285 g and 264 g and 294 g and 293 g (2×) and 278 g
same,Weight,"15 mg/kg, Day 10, individual animals, 15 mg/kg",251 g and 253 g and 237 g and 233 g and 247 g and 234 g and 258 g and 235 g and 226 g and 246 g and 275 g
same,Weight,"15 mg/kg, Day 21, individual animals, 15 mg/kg",307 g and 308 g and 288 g and 282 g and 306 g and 273 g and 300 g and 278 g and 235 g and 274 g and 333 g
same,Weight,"60 mg/kg, Day 10, individual animals, 60 mg/kg",239 g and 240 g and 218 g and 227 g and 243 g and 230 g and 233 g and 267 g and 249 g and 221 g and 260 g and 229 g
same,Weight,"60 mg/kg, Day 21, individual animals, 60 mg/kg",286 g and 323 g and 241 g and 295 g and 303 g and 300 g and 270 g and 312 g and 289 g and 285 g and 324 g and 266 g

# “And” between values parts separate entries of the source, which are not always exact repeats. Equal values may be shown once.
